The list shows a part of the results. The data scatter; read single values as rough.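 Tm was set to 64 °C where no melting was found, and many curves are irregular.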
Compound: CCc1cnccc1C(=O)Nc1cc2c(cc1F)NC(=O)CC2
Test: melting temperature shift (DMSO Tm minus MBE1-treated Tm) in cellular thermal proteome profiling; higher = less thermal stabilization by MBE1 (negative = stabilized by MBE1)
Settings: A375

Amino acid sequences for entries named in this document (tags omitted). A change or cut given only in a name is not applied to a line headed by its entry.
UniProt P35579, whole entry: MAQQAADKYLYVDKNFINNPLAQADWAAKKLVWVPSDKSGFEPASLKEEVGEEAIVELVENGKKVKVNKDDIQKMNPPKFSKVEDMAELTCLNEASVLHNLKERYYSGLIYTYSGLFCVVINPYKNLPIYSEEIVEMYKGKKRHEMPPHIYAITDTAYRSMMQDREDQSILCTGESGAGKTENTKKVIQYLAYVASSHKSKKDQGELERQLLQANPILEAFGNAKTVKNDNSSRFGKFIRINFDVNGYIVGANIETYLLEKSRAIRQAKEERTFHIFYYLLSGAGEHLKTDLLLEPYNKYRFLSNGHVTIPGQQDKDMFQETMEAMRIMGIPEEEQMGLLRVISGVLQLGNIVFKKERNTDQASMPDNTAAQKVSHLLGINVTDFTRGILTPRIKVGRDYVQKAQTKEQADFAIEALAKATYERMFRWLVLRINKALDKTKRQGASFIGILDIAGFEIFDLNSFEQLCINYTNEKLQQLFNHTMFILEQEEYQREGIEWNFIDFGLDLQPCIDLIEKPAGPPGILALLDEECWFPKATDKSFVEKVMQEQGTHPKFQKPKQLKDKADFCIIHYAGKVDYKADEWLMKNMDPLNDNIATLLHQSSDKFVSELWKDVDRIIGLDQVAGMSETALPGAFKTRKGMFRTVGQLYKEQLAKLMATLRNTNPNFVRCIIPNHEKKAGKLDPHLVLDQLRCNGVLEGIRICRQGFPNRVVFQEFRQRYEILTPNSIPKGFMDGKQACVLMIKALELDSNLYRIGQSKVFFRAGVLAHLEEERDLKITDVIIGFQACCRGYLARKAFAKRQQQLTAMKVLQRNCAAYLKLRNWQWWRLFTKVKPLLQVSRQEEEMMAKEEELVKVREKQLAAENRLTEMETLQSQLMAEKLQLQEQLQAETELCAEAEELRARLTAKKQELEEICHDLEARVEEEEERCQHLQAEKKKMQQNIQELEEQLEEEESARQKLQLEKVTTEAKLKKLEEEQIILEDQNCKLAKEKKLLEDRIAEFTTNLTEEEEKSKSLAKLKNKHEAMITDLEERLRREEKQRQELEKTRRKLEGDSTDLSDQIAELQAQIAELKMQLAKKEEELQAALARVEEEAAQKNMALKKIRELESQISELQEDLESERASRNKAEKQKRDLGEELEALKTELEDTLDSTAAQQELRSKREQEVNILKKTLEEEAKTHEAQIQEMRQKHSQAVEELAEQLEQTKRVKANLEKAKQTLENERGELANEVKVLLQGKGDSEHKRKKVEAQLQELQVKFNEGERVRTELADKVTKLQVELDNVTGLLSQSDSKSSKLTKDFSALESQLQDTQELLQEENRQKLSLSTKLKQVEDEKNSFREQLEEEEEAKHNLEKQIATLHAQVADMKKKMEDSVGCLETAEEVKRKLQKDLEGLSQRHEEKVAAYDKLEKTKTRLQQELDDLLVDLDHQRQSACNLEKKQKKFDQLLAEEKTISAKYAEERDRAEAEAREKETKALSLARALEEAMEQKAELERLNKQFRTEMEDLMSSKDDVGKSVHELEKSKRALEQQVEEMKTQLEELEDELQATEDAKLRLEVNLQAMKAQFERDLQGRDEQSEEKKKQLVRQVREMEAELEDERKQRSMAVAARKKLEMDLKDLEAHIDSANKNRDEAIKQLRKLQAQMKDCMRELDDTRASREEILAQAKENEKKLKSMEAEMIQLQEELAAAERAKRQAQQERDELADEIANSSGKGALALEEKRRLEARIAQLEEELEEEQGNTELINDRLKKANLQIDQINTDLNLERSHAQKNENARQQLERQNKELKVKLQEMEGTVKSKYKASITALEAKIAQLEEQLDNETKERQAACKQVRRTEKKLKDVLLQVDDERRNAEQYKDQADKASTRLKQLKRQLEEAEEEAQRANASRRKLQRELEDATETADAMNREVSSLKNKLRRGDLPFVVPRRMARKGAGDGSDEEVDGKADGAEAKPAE
UniProt P33897: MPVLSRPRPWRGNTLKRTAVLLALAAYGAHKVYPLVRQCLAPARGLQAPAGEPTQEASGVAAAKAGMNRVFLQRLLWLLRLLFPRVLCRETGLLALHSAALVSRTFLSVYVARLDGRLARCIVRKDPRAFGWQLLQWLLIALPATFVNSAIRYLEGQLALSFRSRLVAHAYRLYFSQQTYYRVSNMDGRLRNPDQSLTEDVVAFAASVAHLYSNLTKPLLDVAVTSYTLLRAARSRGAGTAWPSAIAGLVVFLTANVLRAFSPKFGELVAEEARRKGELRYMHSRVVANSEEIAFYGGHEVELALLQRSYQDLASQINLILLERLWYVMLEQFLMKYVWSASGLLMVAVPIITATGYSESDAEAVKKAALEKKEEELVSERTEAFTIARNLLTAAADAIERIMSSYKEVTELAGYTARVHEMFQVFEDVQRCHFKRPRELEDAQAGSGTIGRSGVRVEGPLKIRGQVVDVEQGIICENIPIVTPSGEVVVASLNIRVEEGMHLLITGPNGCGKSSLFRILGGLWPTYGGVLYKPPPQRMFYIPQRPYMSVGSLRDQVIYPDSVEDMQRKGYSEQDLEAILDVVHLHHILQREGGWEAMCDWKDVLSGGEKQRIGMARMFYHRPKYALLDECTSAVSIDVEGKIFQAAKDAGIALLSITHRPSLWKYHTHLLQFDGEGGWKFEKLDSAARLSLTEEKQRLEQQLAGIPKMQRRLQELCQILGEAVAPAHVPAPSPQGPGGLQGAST
UniProt P33764: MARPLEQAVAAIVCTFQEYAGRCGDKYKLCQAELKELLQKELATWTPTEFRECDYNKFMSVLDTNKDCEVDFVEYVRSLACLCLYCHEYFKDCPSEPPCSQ
UniProt P27815: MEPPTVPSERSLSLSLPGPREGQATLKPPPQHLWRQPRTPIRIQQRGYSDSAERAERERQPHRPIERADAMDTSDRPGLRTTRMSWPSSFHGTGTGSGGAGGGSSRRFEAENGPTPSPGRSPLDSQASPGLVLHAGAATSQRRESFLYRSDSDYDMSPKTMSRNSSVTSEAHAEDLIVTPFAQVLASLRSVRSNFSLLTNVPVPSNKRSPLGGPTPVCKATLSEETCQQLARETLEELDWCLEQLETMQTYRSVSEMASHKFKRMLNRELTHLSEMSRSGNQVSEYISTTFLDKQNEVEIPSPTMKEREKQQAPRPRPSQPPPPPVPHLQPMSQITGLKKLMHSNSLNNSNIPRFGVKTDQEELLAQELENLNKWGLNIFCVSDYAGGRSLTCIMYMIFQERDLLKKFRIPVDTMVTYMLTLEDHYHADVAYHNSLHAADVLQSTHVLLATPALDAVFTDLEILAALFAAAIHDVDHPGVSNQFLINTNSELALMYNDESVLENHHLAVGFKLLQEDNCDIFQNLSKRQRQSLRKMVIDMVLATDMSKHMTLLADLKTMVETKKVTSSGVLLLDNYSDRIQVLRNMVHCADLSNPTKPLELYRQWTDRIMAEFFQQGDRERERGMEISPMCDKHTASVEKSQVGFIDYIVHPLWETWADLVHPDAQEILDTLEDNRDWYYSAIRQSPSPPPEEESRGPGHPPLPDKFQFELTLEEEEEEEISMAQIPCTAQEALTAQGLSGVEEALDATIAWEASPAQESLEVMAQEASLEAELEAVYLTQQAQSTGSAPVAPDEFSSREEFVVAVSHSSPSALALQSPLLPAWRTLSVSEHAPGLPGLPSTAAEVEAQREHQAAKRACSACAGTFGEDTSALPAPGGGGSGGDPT
UniProt P26232: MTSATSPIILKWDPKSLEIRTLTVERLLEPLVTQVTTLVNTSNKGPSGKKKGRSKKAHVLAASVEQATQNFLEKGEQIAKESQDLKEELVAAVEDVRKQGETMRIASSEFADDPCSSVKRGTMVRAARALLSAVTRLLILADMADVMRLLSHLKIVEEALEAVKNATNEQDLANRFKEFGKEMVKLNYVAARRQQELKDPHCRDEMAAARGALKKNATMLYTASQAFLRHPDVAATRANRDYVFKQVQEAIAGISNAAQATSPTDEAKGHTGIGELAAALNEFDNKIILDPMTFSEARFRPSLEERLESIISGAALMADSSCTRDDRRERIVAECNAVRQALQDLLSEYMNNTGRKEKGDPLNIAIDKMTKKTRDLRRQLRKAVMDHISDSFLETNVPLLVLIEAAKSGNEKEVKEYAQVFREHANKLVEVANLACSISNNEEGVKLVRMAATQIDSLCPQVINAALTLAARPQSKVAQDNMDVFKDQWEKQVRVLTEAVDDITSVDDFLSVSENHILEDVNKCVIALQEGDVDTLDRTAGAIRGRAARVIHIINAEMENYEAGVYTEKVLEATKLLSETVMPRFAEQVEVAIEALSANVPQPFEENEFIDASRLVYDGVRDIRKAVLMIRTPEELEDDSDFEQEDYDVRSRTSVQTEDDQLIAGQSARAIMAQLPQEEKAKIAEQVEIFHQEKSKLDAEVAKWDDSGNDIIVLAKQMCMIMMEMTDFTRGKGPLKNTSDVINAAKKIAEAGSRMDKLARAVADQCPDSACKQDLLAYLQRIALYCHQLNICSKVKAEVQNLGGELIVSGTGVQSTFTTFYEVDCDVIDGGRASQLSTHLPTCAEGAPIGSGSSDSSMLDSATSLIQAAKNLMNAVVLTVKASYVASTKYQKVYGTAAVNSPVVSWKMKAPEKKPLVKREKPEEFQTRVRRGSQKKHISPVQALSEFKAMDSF
UniProt P31946: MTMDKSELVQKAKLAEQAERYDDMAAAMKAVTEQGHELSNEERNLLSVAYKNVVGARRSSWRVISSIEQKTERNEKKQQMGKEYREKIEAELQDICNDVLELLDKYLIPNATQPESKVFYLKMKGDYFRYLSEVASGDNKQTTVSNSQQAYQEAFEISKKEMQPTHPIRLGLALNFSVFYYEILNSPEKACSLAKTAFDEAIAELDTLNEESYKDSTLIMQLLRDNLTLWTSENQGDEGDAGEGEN
UniProt P21281, whole entry: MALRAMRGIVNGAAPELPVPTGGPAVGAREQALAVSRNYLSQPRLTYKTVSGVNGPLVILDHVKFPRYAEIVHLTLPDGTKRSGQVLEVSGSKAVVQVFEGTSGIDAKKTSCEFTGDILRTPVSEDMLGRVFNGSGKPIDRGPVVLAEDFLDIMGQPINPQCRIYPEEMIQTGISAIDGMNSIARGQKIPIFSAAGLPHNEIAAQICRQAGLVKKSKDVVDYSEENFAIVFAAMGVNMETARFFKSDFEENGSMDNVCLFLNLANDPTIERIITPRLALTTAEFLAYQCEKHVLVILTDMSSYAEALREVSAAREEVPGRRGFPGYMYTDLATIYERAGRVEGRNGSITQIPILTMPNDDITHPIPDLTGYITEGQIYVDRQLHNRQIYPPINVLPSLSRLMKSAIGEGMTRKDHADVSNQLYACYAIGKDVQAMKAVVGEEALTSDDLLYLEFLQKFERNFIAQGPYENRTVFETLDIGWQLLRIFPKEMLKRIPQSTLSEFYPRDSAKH
UniProt P20585: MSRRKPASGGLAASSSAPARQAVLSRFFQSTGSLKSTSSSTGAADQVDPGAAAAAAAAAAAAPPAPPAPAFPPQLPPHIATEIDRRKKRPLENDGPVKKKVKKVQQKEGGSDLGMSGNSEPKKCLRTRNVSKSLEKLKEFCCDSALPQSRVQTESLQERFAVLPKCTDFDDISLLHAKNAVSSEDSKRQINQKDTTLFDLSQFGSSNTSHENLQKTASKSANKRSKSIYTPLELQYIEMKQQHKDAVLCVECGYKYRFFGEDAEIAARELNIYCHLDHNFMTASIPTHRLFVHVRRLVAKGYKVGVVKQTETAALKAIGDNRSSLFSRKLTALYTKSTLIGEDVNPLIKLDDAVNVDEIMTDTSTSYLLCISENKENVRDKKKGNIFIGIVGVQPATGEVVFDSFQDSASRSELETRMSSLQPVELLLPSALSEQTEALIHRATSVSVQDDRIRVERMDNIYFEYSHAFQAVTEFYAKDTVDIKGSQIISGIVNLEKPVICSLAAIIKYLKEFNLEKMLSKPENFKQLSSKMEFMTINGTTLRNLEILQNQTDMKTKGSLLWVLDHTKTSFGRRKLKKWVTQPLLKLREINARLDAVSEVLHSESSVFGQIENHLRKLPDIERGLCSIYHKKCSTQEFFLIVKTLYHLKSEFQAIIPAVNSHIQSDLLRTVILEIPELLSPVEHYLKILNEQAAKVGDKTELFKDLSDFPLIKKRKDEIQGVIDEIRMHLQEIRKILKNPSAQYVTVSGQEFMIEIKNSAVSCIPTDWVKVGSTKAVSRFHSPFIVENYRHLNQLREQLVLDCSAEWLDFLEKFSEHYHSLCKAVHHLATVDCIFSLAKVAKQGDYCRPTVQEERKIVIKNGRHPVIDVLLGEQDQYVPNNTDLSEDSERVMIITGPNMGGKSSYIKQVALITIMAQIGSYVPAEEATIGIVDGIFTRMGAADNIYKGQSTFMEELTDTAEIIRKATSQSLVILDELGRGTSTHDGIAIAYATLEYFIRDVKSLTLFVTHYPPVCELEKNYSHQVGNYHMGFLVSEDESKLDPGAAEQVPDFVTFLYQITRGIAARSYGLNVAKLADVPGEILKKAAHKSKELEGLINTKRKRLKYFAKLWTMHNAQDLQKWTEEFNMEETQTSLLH

Row | Target | melting temperature shift (MBE1 concentration: 100 nM) [°C] | melting temperature shift (MBE1 concentration: 1 uM) [°C]
1 | VARS (UniProt P26640) | 0.647 | 0.238
2 | DUT (UniProt P33316) | -0.496 | 0.507
3 | MYH9 (UniProt P35579) | -0.402 | 0.239
4 | UniProt P35609 | -7.58 | -4.63
5 | TUBG1 (UniProt P23258) | -0.469 | -0.148
6 | ABCD1 (UniProt P33897) | -1.06 | -0.776
7 | UniProt P33764 | -0.598 | 0.305
8 | WARS (UniProt P23381) | -1.76 | -0.354
9 | DCK (UniProt P27707) | -0.537 | 0.33
10 | GTF2E1 (UniProt P29083) | -0.772 | -0.485
11 | UniProt P27815 | -1.15 | 3.27
12 | RPL13 (UniProt P26373) | -0.519 | 0.189
13 | UniProt P26232 | -0.402 | 0.228
14 | GTF2H1 (UniProt P32780) | -0.653 | -0.263
15 | UniProt P28161 | 0.256 | 0.69
16 | PRDX6 (UniProt P30041) | -0.0335 | 0.0939
17 | YWHAB (UniProt P31946) | -0.436 | -0.503
18 | ATP6V1B2 (UniProt P21281) | -0.691 | 0.743
19 | SLC7A1 (UniProt P30825) | -2.8 | -0.483
20 | UniProt P36507 | 0.519 | 0.44
21 | MSH3 (UniProt P20585) | 1.12 | 0.525
22 | UniProt P35612 | -1.97 | -0.0733

An excerpt of these results, with each value named:
YWHAB (UniProt P31946)
  melting temperature shift (MBE1 concentration: 100 nM) [°C]: -0.436
  melting temperature shift (MBE1 concentration: 1 uM) [°C]: -0.503
ATP6V1B2 (UniProt P21281)
  melting temperature shift (MBE1 concentration: 100 nM) [°C]: -0.691
  melting temperature shift (MBE1 concentration: 1 uM) [°C]: 0.743

Source: the supplement of paper PMC12595434, “Development of retinoid nuclear receptor pathway antagonists through targeting aldehyde dehydrogenase 1A3” (iScience, 2025)
